Data as given in PubChem BioAssay AID1259405 (NCATS, 2018)

- Assay: 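Mouse-designed siRNAs used to find CHO productivity engineering targets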 (primary screen)
- System: Chinese hamster CHO-K1 ovary cells with stable secreted eGFP expression
- Reagent: single siRNA against mouse genes, 0.8 pmol siRNA per well (2 µl of 400 nM stock)
- Timing: 3 days
- Detection: 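Per-well intracellular GFP measured by laser scanning cytometry, plus viability from ATP luminescence, each relative to plate median of non-targeting control wells, in %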
- Scale: GFP, % of control: higher = more GFP per well, higher productivity
- Active means: 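Called active when intracellular GFP, relative to negative control, is at or above 120%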
The deposit covers about 50,000 reagents; below is an unselected part. Of all reagents, about 4,000 (8%) were called active. 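Mouse siRNA library applied to hamster cells; one well for each siRNA.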 Not all columns of the deposit are shown.

GFP, % of control, by target and reagent
Mstn: SID363572672 89.5 inactive; SID363577952 131 active; SID363582176 86.2 inactive
Hspb3: SID363553718 115 inactive; SID363561675 120 inactive; SID363565413 87.5 inactive
Igfbp3: SID363540296 83.8 inactive; SID363542048 79 inactive; SID363566964 88.3 inactive
Etfbkmt: SID363545218 52.6 inactive; SID363548731 59.4 inactive; SID363562537 50.4 inactive
Rlim: SID363547522 7.15 inactive; SID363558291 59.4 inactive; SID363560049 85.6 inactive
Hagh: SID363569850 99.1 inactive; SID363576890 127 active; SID363578298 53.1 inactive
Dand5: SID363539630 81.3 inactive; SID363560931 200 active; SID363565021 59.3 inactive
Brms1l: SID363547009 88.8 inactive; SID363549821 92.6 inactive; SID363587875 103 inactive
Col3a1: SID363553723 66.1 inactive; SID363561680 90.3 inactive; SID363565418 58 inactive
Uxs1: SID363569093 83.6 inactive; SID363583525 94.3 inactive
4933405O20Rik: SID363547837 111 inactive; SID363558606 79.2 inactive; SID363560364 74.9 inactive
Or1e25: SID363554271 32.7 inactive; SID363567718 87.4 inactive; SID363585075 53.8 inactive
Hif1a: SID363573337 90.3 inactive; SID363588576 96.5 inactive
Rbx1: SID363572590 91.1 inactive; SID363577870 105 inactive; SID363582094 102 inactive
Or4c122: SID363554163 37.8 inactive; SID363567610 108 inactive; SID363584967 93.8 inactive
Gphr: SID363571311 83.2 inactive; SID363571663 101 inactive; SID363572015 72.3 inactive
Vmn1r64: SID363544896 23.4 inactive; SID363551224 67 inactive; SID363557773 79.4 inactive
Cetn1: SID363582676 97.4 inactive; SID363584436 70.2 inactive
AI854703: SID363555429 68 inactive; SID363564090 71.4 inactive; SID363587636 49.1 inactive
Zfp473: SID363555357 113 inactive; SID363564018 77.3 inactive; SID363587564 91.1 inactive
Ssxb2: SID363573874 118 inactive; SID363581618 89.7 inactive; SID363584082 35.8 inactive
Pln: SID363554779 76.4 inactive; SID363568226 98.4 inactive; SID363586285 98.7 inactive
Phip: SID363554612 84.8 inactive; SID363568059 55.2 inactive; SID363586118 130 active
Reep5: SID363544262 80.8 inactive; SID363550590 71.1 inactive; SID363557139 44.7 inactive
Naa25: SID363545384 132 active; SID363548897 77.8 inactive; SID363562703 46.8 inactive
Krt82: SID363540977 50.5 inactive; SID363555604 75.5 inactive; SID363565893 120 active
Or5p57: SID363544479 83.2 inactive; SID363550807 75.6 inactive; SID363557356 45.9 inactive
Cd2ap: SID363572235 63.2 inactive; SID363573995 69.5 inactive
Aatf: SID363573476 66.3 inactive; SID363588715 82.5 inactive
Slc26a5: SID363574827 75 inactive; SID363575883 16.8 inactive; SID363580459 48.5 inactive
